Experimental data: PubChem BioAssay AID1224830 (NIAID, 2016)
The whole screen tested about 18,000 reagents; shown is an unselected part. In the full data, about 2,900 (16%) were called active. 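Calls are made per well; low scores hint the gene aids the LPS response, high scores that it dampens it.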 Repeated entries: four replicate wells of each siRNA pool.

Assay: 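Host factors that control LPS-induced TNF expression in human macrophages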 (primary screen)
Cell system: human THP-1 monocytic leukaemia cells, TNF dual-luciferase reporter clone, PMA-differentiated to macrophage-like cells
Reagent: siRNA pool against human genes, 50 nM
Duration: LPS for 4 h, given about 3 days after siRNA transfection
Treatment: bacterial LPS (TLR4 ligand), 10 ng/ml
Measured: 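Ratio of firefly to renilla light, scaled to the plate median and expressed as a robust z-score per replicate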
Direction: TNF reporter robust z-score: higher = stronger TNF reporter response to LPS
Call rule: 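a well is active when its z-score exceeds 2.8 or falls below -1.5; control wells carry no call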

| TNF reporter robust z-score | Call | gene |
| --- | --- | --- |
| 1.07 | inactive | CCDC138 (coiled-coil domain containing 138) |
| -0.35 | inactive | CCDC138 (coiled-coil domain containing 138) |
| 0.75 | inactive | CCDC138 (coiled-coil domain containing 138) |
| 1.64 | inactive | CCDC138 (coiled-coil domain containing 138) |
| 2.68 | inactive | FICD (FIC domain protein adenylyltransferase) |
| 0.94 | inactive | FICD (FIC domain protein adenylyltransferase) |
| 0.05 | inactive | FICD (FIC domain protein adenylyltransferase) |
| 1.76 | inactive | FICD (FIC domain protein adenylyltransferase) |
| -0.73 | inactive | CHAT (choline O-acetyltransferase) |
| 0.65 | inactive | CHAT (choline O-acetyltransferase) |
| 3.04 | active | CHAT (choline O-acetyltransferase) |
| 1.67 | inactive | CHAT (choline O-acetyltransferase) |
| 0.98 | inactive | ZDHHC5 (zDHHC palmitoyltransferase 5) |
| 0.38 | inactive | ZDHHC5 (zDHHC palmitoyltransferase 5) |
| -0.23 | inactive | ZDHHC5 (zDHHC palmitoyltransferase 5) |
| -0.08 | inactive | ZDHHC5 (zDHHC palmitoyltransferase 5) |
| 0.52 | inactive | GALNT6 (polypeptide N-acetylgalactosaminyltransferase 6) |
| 1.01 | inactive | GALNT6 (polypeptide N-acetylgalactosaminyltransferase 6) |
| 1.38 | inactive | GALNT6 (polypeptide N-acetylgalactosaminyltransferase 6) |
| 2.16 | inactive | GALNT6 (polypeptide N-acetylgalactosaminyltransferase 6) |
| -1.08 | inactive | CIAPIN1 (cytokine induced apoptosis inhibitor 1) |
| -1.35 | inactive | CIAPIN1 (cytokine induced apoptosis inhibitor 1) |
| -1.16 | inactive | CIAPIN1 (cytokine induced apoptosis inhibitor 1) |
| -1.22 | inactive | CIAPIN1 (cytokine induced apoptosis inhibitor 1) |

The list goes on; the last 2 above are carried over.
| TNF reporter robust z-score | Call | gene |
| --- | --- | --- |
| -1.16 | inactive | CIAPIN1 (cytokine induced apoptosis inhibitor 1) |
| -1.22 | inactive | CIAPIN1 (cytokine induced apoptosis inhibitor 1) |
| -1.08 | inactive | KCNA5 (potassium voltage-gated channel subfamily A member 5) |
| 1.82 | inactive | KCNA5 (potassium voltage-gated channel subfamily A member 5) |
| 0.16 | inactive | KCNA5 (potassium voltage-gated channel subfamily A member 5) |
| -0.52 | inactive | KCNA5 (potassium voltage-gated channel subfamily A member 5) |
| -0.56 | inactive | ITIH2 (inter-alpha-trypsin inhibitor heavy chain 2) |
| 0.19 | inactive | ITIH2 (inter-alpha-trypsin inhibitor heavy chain 2) |
| 0.64 | inactive | ITIH2 (inter-alpha-trypsin inhibitor heavy chain 2) |
| 0.54 | inactive | ITIH2 (inter-alpha-trypsin inhibitor heavy chain 2) |
| 0.41 | inactive | SPAG16 (sperm associated antigen 16) |
| -0.74 | inactive | SPAG16 (sperm associated antigen 16) |
| -1.05 | inactive | SPAG16 (sperm associated antigen 16) |
| -1.29 | inactive | SPAG16 (sperm associated antigen 16) |
| 0.09 | inactive | SMOC1 (SPARC related modular calcium binding 1) |
| -0.54 | inactive | SMOC1 (SPARC related modular calcium binding 1) |
| -0.52 | inactive | SMOC1 (SPARC related modular calcium binding 1) |
| -0.43 | inactive | SMOC1 (SPARC related modular calcium binding 1) |
| -0.31 | inactive | CLDN15 (claudin 15) |
| -0.55 | inactive | CLDN15 (claudin 15) |
| -1.96 | active | CLDN15 (claudin 15) |
| -1.01 | inactive | CLDN15 (claudin 15) |
| -1.8 | active | ITGB3 (integrin subunit beta 3) |
| -1.55 | active | ITGB3 (integrin subunit beta 3) |
| -1.68 | active | ITGB3 (integrin subunit beta 3) |
| -1.51 | active | ITGB3 (integrin subunit beta 3) |
